We go through 1 molecule from patent publication US20220306750A1 (CITY OF HOPE, published 2022).

The chains behind the UniProt entries cited, without tags or fusion partners. Residues count along the entry.
UniProt Q9NPH3, residues 21-367: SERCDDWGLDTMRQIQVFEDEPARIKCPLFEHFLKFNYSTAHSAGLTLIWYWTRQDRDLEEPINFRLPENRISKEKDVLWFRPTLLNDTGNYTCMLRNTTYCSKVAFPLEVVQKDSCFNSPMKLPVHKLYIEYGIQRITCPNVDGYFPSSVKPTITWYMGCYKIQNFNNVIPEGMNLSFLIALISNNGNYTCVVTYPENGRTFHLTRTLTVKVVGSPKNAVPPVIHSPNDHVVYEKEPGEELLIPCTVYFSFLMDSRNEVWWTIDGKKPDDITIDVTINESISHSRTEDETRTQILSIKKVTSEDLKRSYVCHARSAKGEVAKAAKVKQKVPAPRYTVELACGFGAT

The target in the assay is interleukin-1 receptor accessory protein (IL1RAP), antigen of the ELISA and phage selection (UniProt Q9NPH3). The assay is described as follows: human scFv phage display library selection.

These are yes or no findings as the source states them, for the method shown. Some entries that bind do so weakly or less than the wild type.

B1: anti-IL1RAP antibody clone 2E12 (Fc fusion)
VH: PGAAAGVGGGLVQPGGSLRLSCEASGFTFSRYWMHWVRQAPGKGLVWVSRIHTDGSSISYADSVKGRFTISRDNAKNTLYLQMNSLRAEDTAVYYCARDIGGGYSYGSVDYWGQGTLVTVSS
VL: QPVLTQSPSVSVAPGKTTRITCGGDNIGSKSVHWFQQKPGQAPVLVVFGGGDRPSGIPERFSGSNSGNTATLIISGVEGGDEADYYCQVWDGSTDHYIFGAGTMVTVL
notes: Tested as scFv-Fc
For B1, the binding result is on record as “binds”.
